Data reported in patent publication US11254706B2, “Peptide and its derivatives capable of inhibiting replication of hepatitis V virus in human adipose-derived stem cells and hepatocytes” (Inno Bio-Drug Development Limited, priority 2015, dated 2022).
Some entries share one result that the patent states for a list of compounds. Ends that are not written are not given here.

Key:
[1] = tested on: serum-borne HCV (genotype 1b); assay: Replication of serum-borne HCV in hADSC (qRT-PCR of 5′-UTR); format: cell-based; details: d21 supernatants and cell lysates, HCVser-1b, lowest dose tested
Description: FIG. 1. […] Data are expressed as mean±SD from 3 experiments. […] Data are expressed as mean±SD from 3 experiments.
We next examined the effect of a peptide composed of 14 amino acids DEAQETAVSSHEQD (SEQ ID NO: 1) (designated as DEA), and its derivatives QETAVSSHEQD (SEQ ID NO: 3) (designated as QET) and DEAQETAVSSHEQ (SEQ ID NO: 2) (designated DEA-Q) as prepared in Example 1, in the replication of serum-borne HCV in hADSC and in human primary hepatocytes. […] (SEQ ID NO: 4)^10. […] In contrast, pretreatment with control peptide had no effects.

HCVser (genotype 1b) = details: human hepatocytes, five days post-infection; lowest dose tested
Procedure: FIG. 1. […] (A and B) Concentrations of 1, 10 and 100 μg/ml of DEA, DEA-Q and QET peptides were added into the culture of p5 hADSC for 1 h before exposure to HCV(+) serum (genotype 1b). HLA-A11 restricted, Epstein-Barr virus-specific peptide epitope […] was used as a control (irrelevant) peptide. On day 21 post-infection, the 5′-UTR copy numbers in the supernatant (A) and cell lysates (B) were quantified by qRT-PCR. Data are expressed as mean±SD from 3 experiments. (C) Concentrations of 1, 10 and 100 μg/ml of DEA, DEA-Q and QET peptides were added into the culture of primary human hepatocytes 1 h before exposure to HCVser (genotype 1b). Five days post-infection, the cellular RNAs were extracted for RT-PCR of 5′-UTR. Data are expressed as mean±SD from 3 experiments.
Human hepatocytes were isolated from the non-tumoural part away from the lesion, as described^11. Hepatocytes were left for 3 days to allow attachment onto plastic wells, and subsequently exposed to the HCVser-1b with or without pretreatment with control peptide, DEA, DEA-Q or QET peptide. Five days post-infection, the cellular RNAs were extracted for RT-PCR of 5′-UTR.

Substance	concentration at which the inhibitory effect was already noticeable [1]	concentration at which HCVser replication was significantly inhibited (as low as) (HCVser (genotype 1b))
DEAQETAVSSHEQ-OH [DEA-Q, DEAQETAVSSHEQ]	≤ 1 µg/mL	≤ 1 µg/mL
DEAQETAVSSHEQD-OH [DEA, DEAQETAVSSHEQD]	≤ 1 µg/mL	≤ 1 µg/mL
QETAVSSHEQD-OH [QET, QETAVSSHEQD]	≤ 1 µg/mL	≤ 1 µg/mL
